# Measured values reported in PubChem BioAssay AID1487 (National Center for Advancing Translational Sciences (NCATS), 2009).
# Some of the results follow. The main result of the screen is listed elsewhere. These columns were measured beside it and carry no call. The list favours compounds with an active or inconclusive main result. The note in brackets gives the kind of curve behind each potency; many fits are weak.
# Test: qHTS Assay for Modulators of Lamin A Splicing
# Settings: HeLa LMNA splicing GFP/RFP minigene ratio, 48 h
# How it was run: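 Read-out is the ratio of GFP to DsRed2 object intensity, acquired by 488 nm laser-scanning cytometry on HeLa lamin A-EGFP minigene reporter cells. Compound incubation 48 hrs at 37 °C in Opti-MEM with 2% FBS; DMSO 0.5% final.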
# [1] = measured here: GFP splicing reporter channel
# [2] = measured here: RFP viability control channel
Structure (SMILES),AC50 [1],AC50 [2]
Cc1oc(-c2ccc(Cl)cc2)nc1CSCC(=O)NCCCN1CCOCC1,"12.6 µM [rising, partial curve]","12.6 µM [rising, partial curve]"
CCc1c(C)nc2ncnn2c1N1CCC(C(=O)Nc2ccccc2)CC1,"31.6 µM [rising, single point]","35.5 µM [rising, single point]"
CCOC(=O)c1ccc(CC(=O)c2ccc(O)cc2O)o1,,"35.5 µM [rising, single point]"
CCc1ccccc1NC(=O)N1CCC(NC(=O)C(Cc2ccccc2)NC(C)=O)CC1 (centres undefined),"11.2 µM [rising, partial curve]",
O=C(CCc1ccc(O)cc1)c1c(O)cc(O)cc1O,"25.1 µM [falling, partial curve, poor fit]","0.00501 µM [falling, full curve, poor fit]"
Cc1nc(SCC(=O)c2cccs2)c2oc3ccccc3c2n1,,"31.6 µM [rising, single point]"
COc1ccc(NC(=O)C(C)SCc2ccccc2)cc1OC (centres undefined),,"35.5 µM [rising, single point]"
COc1ccc(N=Cc2c(O)n(-c3cccc(C)n3)c(=O)c3ccccc23)cc1,"28.2 µM [rising, single point]",
O=C(CSc1nc(=O)n(Cc2ccco2)c2c1CCC2)NCc1ccc(F)cc1,"11.2 µM [rising, partial curve]","15.8 µM [rising, single point]"
O=C(Nc1ccc(N=Nc2ccccc2)c(NC(=O)C2CCCO2)c1)C1CCCO1 (centres undefined),,"10 µM [rising, partial curve]"
COc1cccc(C2=CC(c3ccc(N(C)C)cc3)n3nnnc3N2)c1 (centres undefined),"11.2 µM [rising, partial curve]","15.8 µM [rising, partial curve]"
CCOC(C)=O,"0.002 µM [rising, full curve, poor fit]","0.141 µM [rising, full curve, poor fit]"
Fc1ccc(F)c(C2=NNC(=NCC3CCCO3)SC2)c1 (centres undefined),,"35.5 µM [rising, single point]"
COc1cccc(-c2nc(NCc3ccc(OC)cc3OC)c3ccccc3n2)c1,"12.6 µM [falling, single point]",
O=C(NC1CC(=O)N(c2ccc(Cl)cc2)C1)c1cccs1 (centres undefined),,"0.0251 µM [falling, full curve, poor fit]"
O=C(NC1(C(F)(F)F)NC(=O)N(C2CCCCC2)C1=O)c1ccco1 (centres undefined),"0.2 µM [rising, full curve, poor fit]",
CCCCn1c(=S)[nH]c2ccccc2c1=O,"0.158 µM [rising, partial curve, poor fit]",
N#CCCn1c(=O)c(-c2ccc(Cl)cc2)nc2cnc(N3CCNCC3)nc21,"22.4 µM [falling, single point]","15.8 µM [falling, partial curve]"

Structure (SMILES),AC50 [1],AC50 [2]
O=c1[nH]c2cc([N+](=O)[O-])c([N+](=O)[O-])cc2[nH]c1=O,"5.62 µM [falling, partial curve, poor fit]","0.0316 µM [rising, partial curve]"
CCN1C(=S)SC(=O)C1=C1C=C(C)N(Cc2ccco2)C(C)=C1,"20 µM [rising, partial curve, poor fit]","14.1 µM [rising, partial curve]"
O=C(c1ccccc1F)N1CCN(S(=O)(=O)c2ccc3c(c2)OCCO3)CC1,,"15.8 µM [rising, partial curve]"
CC(C)CC(C(=O)NC1CCCC1)N(Cc1ccc2c(c1)OCO2)C(=O)c1snc(C(N)=O)c1N (centres undefined),"12.6 µM [rising, partial curve]","15.8 µM [rising, single point]"
CCOc1ccc(S(=O)(=O)NC(C)(C)C)cc1-c1nc2c(C(C)(C)C)nn(C)c2c(=O)[nH]1,"31.6 µM [falling, single point]","25.1 µM [falling, single point]"
O=S(=O)(c1ccc(-c2csc(Nc3ccc(F)cc3)n2)cc1)N1CCCC1,"1.58 µM [rising, full curve, poor fit]","5.62 µM [rising, partial curve]"
CN(NC(=O)c1ccccc1)c1ncc(C(F)(F)F)cc1Cl,,"0.00398 µM [falling, full curve, poor fit]"
Clc1ccc(OCc2nn3c(-c4ccco4)nnc3s2)cc1,,"17.8 µM [rising, single point]"
Cc1ccc2c(=O)c(C(=O)c3ccccc3)cn(CC(=O)Nc3ccccc3)c2n1,"0.00316 µM [rising, full curve, poor fit]",
O=C(c1ccccc1)C(O)c1ccccc1 (centres undefined),,"12.6 µM [rising, single point]"
CCOC(=O)N1CCN(S(=O)(=O)c2ccc(F)c(C(=O)Nc3ccc(C)c(Cl)c3)c2)CC1,"17.8 µM [rising, single point]","35.5 µM [rising, single point]"
COc1ccccc1NC(=O)/C(C#N)=C/C=C/c1ccco1,,"2 µM [rising, full curve, poor fit]"
CCOC(=O)C(Cc1c[nH]c2ccccc12)NC(=O)COc1ccc(Cl)cc1 (centres undefined),"20 µM [falling, single point]","0.447 µM [falling, partial curve, poor fit]"
COCCN(CCOC)C(=O)c1cc2c(=O)n3ccccc3nc2n1C,"0.0224 µM [rising, full curve]",
COc1cc(C2NC(=O)NC(C)=C2C(=O)OCC2CCCO2)cc(OC)c1OC (centres undefined),,"0.00501 µM [falling, full curve, poor fit]"
Cc1[nH]c2ccccc2c1CCN(Cc1cccnc1)C(=S)Nc1ccc(F)cc1,"1.26 µM [rising, single point]",
Cc1ccc(NC(=S)NC(NC(=O)c2ccccc2)C(Cl)(Cl)Cl)c(C)c1 (centres undefined),,"31.6 µM [rising, single point]"

# Some of these compounds in order of length of the SMILES, rising:
Structure (SMILES),AC50 [1],AC50 [2]
O=C(c1ccccc1)C(O)c1ccccc1 (centres undefined),,"12.6 µM [rising, single point]"
Clc1ccc(OCc2nn3c(-c4ccco4)nnc3s2)cc1,,"17.8 µM [rising, single point]"
CN(NC(=O)c1ccccc1)c1ncc(C(F)(F)F)cc1Cl,,"0.00398 µM [falling, full curve, poor fit]"
COCCN(CCOC)C(=O)c1cc2c(=O)n3ccccc3nc2n1C,"0.0224 µM [rising, full curve]",
CCN1C(=S)SC(=O)C1=C1C=C(C)N(Cc2ccco2)C(C)=C1,"20 µM [rising, partial curve, poor fit]","14.1 µM [rising, partial curve]"
CCOC(=O)C(Cc1c[nH]c2ccccc12)NC(=O)COc1ccc(Cl)cc1 (centres undefined),"20 µM [falling, single point]","0.447 µM [falling, partial curve, poor fit]"
Cc1ccc(NC(=S)NC(NC(=O)c2ccccc2)C(Cl)(Cl)Cl)c(C)c1 (centres undefined),,"31.6 µM [rising, single point]"
Cc1ccc2c(=O)c(C(=O)c3ccccc3)cn(CC(=O)Nc3ccccc3)c2n1,"0.00316 µM [rising, full curve, poor fit]",
